# Laboratory results taken from PubChem BioAssay AID504444 (National Center for Advancing Translational Sciences (NCATS), 2011).
# Several values for one entry are separate records, joined by “and”; a condition that tells them apart may be missing. Equal values may be shown once. In all, about 360,000 compounds went through this assay and about 7,500 (2.1%) were called active. The inconclusive results got no clear call from the source; some entries with a clear call stand among them for comparison. Calls come from the whole dose curve; as a rule, active = well fitted inhibition curve with a large enough effect; inconclusive = small, poorly fitted or top-dose-only effect, or effect the other way; inactive = flat fitted curve, though single readings scatter. Potencies beside an inconclusive call are fits to weak or partial responses and may not hold up.
# Assay: Nrf2 qHTS screen for inhibitors; note: nearly all actives have a fitted effect of over 60% in size
# Conditions: A549 ARE-Fluc reporter, luciferase luminescence, 18-24 h; series mostly up to 46 µM
# In short: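 In this cell-based qHTS, ARE-driven firefly luciferase in A549 cells reports Nrf2 activity; the luminescent signal after BugLite lysis is the measured value, with a prior CellTiter-Fluor read for cell health.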
# Potency is the fitted concentration of half-maximal effect.
row,SMILES,Potency
1,Cn1c(=O)c(=O)n(C)c2cc(S(=O)(=O)Nc3ccc(Cl)c(C(F)(F)F)c3)ccc21,inactive
2,CNS(=O)(=O)c1cc(NC(=O)CCCNC(=O)c2ccc(Cl)cc2)ccc1C,"inconclusive: 29.1 µM [falling, single point]"
3,CCOc1ccccc1NC(=O)c1cccc(NC(=O)CC(c2ccccc2)c2ccccc2)c1,"inconclusive: 4.11 µM [falling, partial curve, poor fit]"
4,Cc1sc2ncnc(N=Nc3c(O)[nH]c4ccccc34)c2c1C,"inconclusive: 6.51 µM [activator, single point]"
5,O=c1[nH]c2cc(Br)cnc2nc1/C=C(\O)c1ccc(F)cc1,"inconclusive: 0.184 µM [falling, full curve]"
6,CCN(CC)S(=O)(=O)c1cc(C(=O)N2CCc3ccccc32)ccc1Cl,"inconclusive: 20.6 µM [falling, single point]"
7,COc1ccccc1-c1nc(SCC(=O)Nc2ccc(C)c(C)c2)n[nH]1,"inconclusive: 29.1 µM [falling, single point]"
8,CCCCCCN(C(=O)CCCN1C(=O)NC(c2ccc(-c3ccccc3)cc2)C(C(=O)OCc2ccccc2)=C1C)C(C)C(=O)NCCCC (centres undefined),"inconclusive: 29.1 µM [falling, single point]"
9,COc1ccc(OC)c(N/C=C/C(=O)c2ccccc2)c1,"inconclusive: 5.8 µM [falling, single point]"
10,O=C(NCC1CCCCC1)NCC1CCCCC1,inactive
11,Cc1cc(N2CCOCC2)nc2ccc(NC(=S)NCCC(C)C)cc12,"inconclusive: 32.6 µM [falling, single point]"
12,O=C(COc1ccccc1)N[C@@H]1c2ccccc2CC[C@H]1OCc1ccccc1,"inconclusive: 29.1 µM [falling, single point]"
13,NC(=O)c1cc2ccccc2o/c1=N\NC(=O)c1ccccc1O,active: 8.2 µM
14,CCN(CC)C(=O)COc1ccc(-c2nnc(Nc3ccc(OC)c(C(=O)NC)c3)c3ccccc23)cc1,"inconclusive: 32.6 µM [falling, partial curve, poor fit] and inconclusive: 16.4 µM [falling, partial curve, poor fit]"
15,COc1ccc(NC(=O)CCc2nc3ccccc3[nH]2)cc1,"inconclusive: 7.31 µM [activator, partial curve, poor fit]"
16,Cc1noc(C)c1COc1ccc(C(=O)NCc2cccs2)cc1,"inconclusive: 9.2 µM [falling, partial curve]"
17,CCN(c1ccccc1)S(=O)(=O)c1cc([N+](=O)[O-])ccc1N,"inconclusive: 29.1 µM [falling, single point]"
18,CCOP(=O)(OCC)C(C)(C)NC(=O)Nc1ccc(Cl)c(Cl)c1,active: 23.1 µM
19,Cc1cccc(NC(=O)COc2coc(CN3CCN(Cc4ccccc4)CC3)cc2=O)c1,"inconclusive: 23.1 µM [falling, partial curve, poor fit]"
20,COc1ccc(S(=O)(=O)N2CCN(CC(=O)Nc3ccccc3Cl)CC2)cc1,inactive
21,COc1ccc(C(=O)Nc2cccc(C)c2)cc1S(=O)(=O)N1CCOCC1,"inconclusive: 29.1 µM [falling, partial curve, poor fit]"
22,Cc1nc(-c2cccc(NC(=O)c3ccc(-n4nccc4C)cc3)c2)cs1,active: 16.4 µM

row,SMILES,Potency
1,Cc1ccccc1-n1c(C)cc(/C=C(\C#N)C(=O)NCC2CCCO2)c1C (centres undefined),"inconclusive: 16.4 µM [activator, partial curve, poor fit]"
2,Cc1ccc(Nc2nc(-c3cccnc3)nc3ccccc23)cc1,inactive
3,CCOC(=O)C/C(C)=N/NC(=O)C1CC1(c1ccccc1)c1ccccc1 (centres undefined),inactive
4,O=c1cc(-c2ccccc2Cl)oc2ccc([N+](=O)[O-])c(O)c12,"inconclusive: 32.6 µM [falling, single point]"
5,Fc1ccccc1Nc1ncnc2c1nc1n2CCCCC1,"inconclusive: 0.58 µM [activator, full curve, poor fit]"
6,Cc1ccc(S(=O)(=O)N(C)/N=C/c2ccc(N(C)C)cc2)cc1,"inconclusive: 16.4 µM [falling, single point]"
7,c1ccc(C(Cc2nc(-c3ccncc3)no2)c2ccccc2)cc1,active: 8.2 µM
8,Cc1nc2ccccc2c2oc(C(=O)NCCCN3CCCC3=O)cc12,"inconclusive: 2.91 µM [falling, partial curve, poor fit]"
9,Cc1ccc(-n2ncc(C#N)c2N)cc1,inactive
10,Cc1ccc(OCC(O)CN2CCOCC2)cc1 (centres undefined),inactive
11,CC(C)CCNC(=O)c1c[nH]c2ccc(S(=O)(=O)N3CCOCC3)cc2c1=O,"inconclusive: 18.4 µM [falling, partial curve, poor fit]"
12,CCOc1ccc(N(CC(=O)NCCSCc2ccc(Cl)cc2)S(C)(=O)=O)cc1,"inconclusive: 25.9 µM [falling, partial curve, poor fit]"
13,COC(=O)c1ccc(NC(=O)CC2C(=O)N(c3cccc(C)c3)C(=O)N2C2CCCC2)cc1 (centres undefined),"inconclusive: 29.1 µM [activator, single point]"
14,COc1ccc(C(=O)NC(=S)N(C)Cc2ccccc2)cc1Br,"inconclusive: 6.51 µM [falling, partial curve, poor fit]"
15,Cc1ccc(NC(=O)Nc2cnccn2)c(C)c1,"inconclusive: 8.2 µM [activator, partial curve]"
16,CCCN1CCC(=O)N([C@H](CSc2ccccc2)Cc2ccccc2)CC1,"inconclusive: 32.6 µM [activator, single point]"
17,CCOC(=O)c1c(C)nc(-c2ccccc2)nc1NC(=O)C(C)C,"inconclusive: 11.2 µM [activator, partial curve]"
18,COc1cc(-c2ccc3oc(-c4ccsc4)c(C#CC4(O)CCCCC4)c3c2)cc(OC)c1OC,"inconclusive: 18.4 µM [falling, single point]"
19,Cc1c(C(=O)O)sc2ncnc(N3CCCCC3C)c12 (centres undefined),"inconclusive: 4.11 µM [falling, full curve, poor fit]"
20,COc1cccc(C(=O)Nc2ncc3c(n2)CC(C)(C)CC3=O)c1,"inconclusive: 18.4 µM [activator, single point]"
21,N#C/C(=C/c1ccc(O)c([N+](=O)[O-])c1)C(=O)Nc1ccccc1,"inconclusive: 16.4 µM [activator, partial curve]"
22,CCn1nc(C)c2c(-c3ccccc3)cc(=O)n(C(C)C(=O)NCCc3ccccc3)c21 (centres undefined),active: 18.4 µM

row,SMILES,Potency
1,COc1ccc(S(=O)(=O)n2nc(OCc3cccs3)cc2N)cc1,"inconclusive: 25.9 µM [falling, partial curve, poor fit]"
2,O=C(CCn1ccc2cc(S(=O)(=O)N3CCCC3)ccc21)NCc1ccccc1Cl,inactive
3,COc1cc(CSc2nnnn2-c2ccc(C)cc2)cc(OC)c1OC,active: 6.51 µM
4,CCOc1ccccc1/C=C/C(=O)N1CCN(C(=O)c2ccco2)CC1,"inconclusive: 7.31 µM [falling, partial curve, poor fit]"
5,COc1ccc(-c2cc(=O)oc3c(C)c(O)ccc23)cc1,"inconclusive: 29.1 µM [activator, single point]"
6,COC(=O)c1c(C)[nH]c(C(=O)OC(C)C(=O)N(C)C2CCCCC2)c1C (centres undefined),"inconclusive: 14.6 µM [falling, partial curve, poor fit]"
7,O=C(Nc1ccccn1)C1CCN(c2ncnc3c2nc2n3CCCCC2)CC1,"inconclusive: 0.0651 µM [falling, full curve, poor fit]"
8,O=C(c1cc(-c2cccs2)nc2ccccc12)N1CCN(S(=O)(=O)c2cccc(F)c2)CC1,inactive
9,C=CC[C@@H](Cc1ccc(F)cc1)C(=O)OC[C@H]1CCCN1C(=O)[C@@H](CC=C)CC(=O)N[C@H](CO)Cc1ccccc1,active: 18.4 µM
10,CCOC(=O)N1CCN(S(=O)(=O)c2ccc(F)c(C(=O)Nc3cc(C)cc(C)c3)c2)CC1,"inconclusive: 16.4 µM [falling, partial curve, poor fit]"
11,Cn1nc(-c2ccc(OCC(=O)NCC3CCCO3)cc2)c2ccccc2c1=O (centres undefined),"inconclusive: 23.1 µM [falling, partial curve, poor fit]"
12,CC(=O)OC(C)C[N+](C)(C)C (centres undefined),active: 0.461 µM
13,Cc1c(C(=O)N(C)C2CCCCC2)sc2ncnc(N3CCN(c4ccccc4F)CC3)c12,"inconclusive: 29.1 µM [falling, single point]"
14,COc1ccc(OC)c2sc(N(CCCN(C)C)C(=O)c3ccco3)nc12,"inconclusive: 16.4 µM [activator, partial curve]"
15,ON=C1CCN(c2ncc(C(F)(F)F)cc2Cl)CC1,"inconclusive: 8.2 µM [falling, partial curve, poor fit]"
16,CC(=O)c1cccc(OCc2cc(C(=O)N3C[C@@H](C)O[C@@H](C)C3)no2)c1,"inconclusive: 8.2 µM [activator, partial curve]"
17,O=C(Oc1ccc2c(c1)C(=O)c1ccccc1CO2)c1ccccc1,"inconclusive: 6.51 µM [activator, partial curve]"
18,Cc1csc2c(SCC(=O)NNC(=O)C(Cl)Cl)ncnc12,"inconclusive: 18.4 µM [falling, single point]"
19,C/C(=N\NC(=O)COc1ccc(C)cc1C(C)C)c1cc2ccccc2o1,"inconclusive: 11.6 µM [activator, single point]"
20,COC(=O)c1c(N(S(C)(=O)=O)S(C)(=O)=O)sc2c1CCN(c1ncc(C(F)(F)F)cc1Cl)C2,"inconclusive: 29.1 µM [falling, single point]"

# Part of the list above in order of molecular weight, rising.
row,SMILES,Potency
4,CCOc1ccccc1/C=C/C(=O)N1CCN(C(=O)c2ccco2)CC1,"inconclusive: 7.31 µM [falling, partial curve, poor fit]"
22,Cc1nc(-c2cccc(NC(=O)c3ccc(-n4nccc4C)cc3)c2)cs1,active: 16.4 µM
20,COc1ccc(S(=O)(=O)N2CCN(CC(=O)Nc3ccccc3Cl)CC2)cc1,inactive
